# Some of the results follow. Small differences around the control level are noise.
# Chains of the proteins cited; added tags and fusions are not shown. Lines headed by an entry give the natural chain unless they say otherwise; changes in a name come on top.
# UniProt Q5XUX0: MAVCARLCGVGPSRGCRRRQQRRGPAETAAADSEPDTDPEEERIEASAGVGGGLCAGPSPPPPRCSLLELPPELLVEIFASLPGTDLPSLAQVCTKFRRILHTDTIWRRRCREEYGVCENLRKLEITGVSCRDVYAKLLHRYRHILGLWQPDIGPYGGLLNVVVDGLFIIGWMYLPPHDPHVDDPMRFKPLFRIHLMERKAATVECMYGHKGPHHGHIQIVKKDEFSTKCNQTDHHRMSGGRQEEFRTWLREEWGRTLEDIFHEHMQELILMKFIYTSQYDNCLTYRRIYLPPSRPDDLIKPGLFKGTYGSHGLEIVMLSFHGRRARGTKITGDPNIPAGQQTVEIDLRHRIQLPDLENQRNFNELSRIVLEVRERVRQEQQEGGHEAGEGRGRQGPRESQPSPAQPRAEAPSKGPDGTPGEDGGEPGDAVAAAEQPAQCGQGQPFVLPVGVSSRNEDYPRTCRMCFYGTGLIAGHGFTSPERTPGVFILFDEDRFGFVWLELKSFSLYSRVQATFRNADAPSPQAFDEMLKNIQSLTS
# UniProt Q5VUG0: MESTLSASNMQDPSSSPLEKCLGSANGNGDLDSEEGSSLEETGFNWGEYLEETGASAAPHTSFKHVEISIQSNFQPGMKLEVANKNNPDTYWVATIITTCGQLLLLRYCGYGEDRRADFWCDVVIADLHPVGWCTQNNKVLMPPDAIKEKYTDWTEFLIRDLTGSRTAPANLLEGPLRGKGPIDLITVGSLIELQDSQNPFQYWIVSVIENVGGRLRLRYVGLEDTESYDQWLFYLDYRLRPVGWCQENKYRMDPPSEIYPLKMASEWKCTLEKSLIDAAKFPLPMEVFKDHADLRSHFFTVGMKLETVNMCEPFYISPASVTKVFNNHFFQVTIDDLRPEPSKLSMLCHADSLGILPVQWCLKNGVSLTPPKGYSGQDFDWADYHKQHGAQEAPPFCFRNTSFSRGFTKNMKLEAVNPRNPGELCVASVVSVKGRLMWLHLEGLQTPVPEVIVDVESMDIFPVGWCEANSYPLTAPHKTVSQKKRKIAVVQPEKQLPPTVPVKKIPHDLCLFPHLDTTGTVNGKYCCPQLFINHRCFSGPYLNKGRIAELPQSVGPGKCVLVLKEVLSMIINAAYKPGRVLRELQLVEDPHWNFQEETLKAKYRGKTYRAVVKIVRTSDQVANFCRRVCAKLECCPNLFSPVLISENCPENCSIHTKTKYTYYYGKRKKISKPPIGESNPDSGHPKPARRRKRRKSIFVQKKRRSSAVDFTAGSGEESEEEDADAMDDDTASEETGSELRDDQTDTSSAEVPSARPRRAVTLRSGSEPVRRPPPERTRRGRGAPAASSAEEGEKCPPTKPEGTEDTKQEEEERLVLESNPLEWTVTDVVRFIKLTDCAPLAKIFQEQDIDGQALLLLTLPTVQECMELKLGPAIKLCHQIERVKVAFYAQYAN
# UniProt Q6NX49: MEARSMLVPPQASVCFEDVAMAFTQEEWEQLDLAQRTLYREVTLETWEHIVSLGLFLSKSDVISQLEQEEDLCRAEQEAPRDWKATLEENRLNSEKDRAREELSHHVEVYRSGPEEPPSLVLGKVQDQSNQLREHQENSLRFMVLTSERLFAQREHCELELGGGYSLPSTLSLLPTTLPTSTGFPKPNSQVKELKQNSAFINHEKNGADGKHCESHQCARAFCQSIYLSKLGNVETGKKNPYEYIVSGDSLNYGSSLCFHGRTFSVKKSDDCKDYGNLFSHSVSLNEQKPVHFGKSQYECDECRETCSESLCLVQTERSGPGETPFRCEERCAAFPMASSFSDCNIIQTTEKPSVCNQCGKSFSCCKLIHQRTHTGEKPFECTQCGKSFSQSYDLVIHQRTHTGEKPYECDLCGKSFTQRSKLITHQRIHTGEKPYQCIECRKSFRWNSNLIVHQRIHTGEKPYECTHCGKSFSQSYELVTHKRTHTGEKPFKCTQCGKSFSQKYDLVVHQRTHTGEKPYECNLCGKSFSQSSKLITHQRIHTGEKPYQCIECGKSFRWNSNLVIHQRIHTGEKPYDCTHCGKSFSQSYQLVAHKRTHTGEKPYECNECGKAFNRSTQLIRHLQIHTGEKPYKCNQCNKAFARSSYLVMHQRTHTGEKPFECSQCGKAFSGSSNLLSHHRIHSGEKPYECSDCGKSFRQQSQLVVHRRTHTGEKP
# UniProt Q5VTD9: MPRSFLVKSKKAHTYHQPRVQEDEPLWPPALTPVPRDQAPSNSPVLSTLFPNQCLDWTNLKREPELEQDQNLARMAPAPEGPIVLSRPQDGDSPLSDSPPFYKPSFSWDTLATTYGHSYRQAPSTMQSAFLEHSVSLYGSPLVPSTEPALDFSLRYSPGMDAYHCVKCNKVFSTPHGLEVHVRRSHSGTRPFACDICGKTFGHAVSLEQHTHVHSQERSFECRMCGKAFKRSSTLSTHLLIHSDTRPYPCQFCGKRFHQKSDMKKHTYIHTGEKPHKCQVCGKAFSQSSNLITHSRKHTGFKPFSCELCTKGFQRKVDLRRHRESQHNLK
# UniProt Q6PKC3: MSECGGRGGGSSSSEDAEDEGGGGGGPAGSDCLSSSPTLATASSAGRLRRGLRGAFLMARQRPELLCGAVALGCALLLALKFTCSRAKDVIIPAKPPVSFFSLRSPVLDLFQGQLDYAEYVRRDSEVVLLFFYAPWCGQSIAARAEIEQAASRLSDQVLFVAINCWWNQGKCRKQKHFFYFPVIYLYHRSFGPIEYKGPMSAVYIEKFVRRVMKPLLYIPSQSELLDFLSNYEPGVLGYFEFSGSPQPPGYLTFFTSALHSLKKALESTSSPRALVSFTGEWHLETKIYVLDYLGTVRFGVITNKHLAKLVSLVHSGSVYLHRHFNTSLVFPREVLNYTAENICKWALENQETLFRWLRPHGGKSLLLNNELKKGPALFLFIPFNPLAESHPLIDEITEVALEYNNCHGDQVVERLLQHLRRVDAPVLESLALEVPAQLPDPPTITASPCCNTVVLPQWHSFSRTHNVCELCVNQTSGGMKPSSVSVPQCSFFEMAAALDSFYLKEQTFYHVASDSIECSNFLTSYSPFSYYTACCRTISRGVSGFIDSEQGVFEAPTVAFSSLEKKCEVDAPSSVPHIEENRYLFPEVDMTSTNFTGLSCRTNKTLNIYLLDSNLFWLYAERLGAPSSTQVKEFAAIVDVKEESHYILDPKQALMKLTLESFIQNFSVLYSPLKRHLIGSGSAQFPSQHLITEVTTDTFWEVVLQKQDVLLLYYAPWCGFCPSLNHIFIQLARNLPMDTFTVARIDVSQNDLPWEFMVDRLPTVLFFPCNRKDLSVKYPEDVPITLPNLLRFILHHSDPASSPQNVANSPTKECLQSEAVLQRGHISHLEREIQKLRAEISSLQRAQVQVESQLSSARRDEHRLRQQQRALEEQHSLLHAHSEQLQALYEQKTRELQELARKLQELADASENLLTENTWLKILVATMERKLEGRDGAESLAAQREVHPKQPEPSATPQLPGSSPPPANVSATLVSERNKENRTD
# UniProt Q6IQ49: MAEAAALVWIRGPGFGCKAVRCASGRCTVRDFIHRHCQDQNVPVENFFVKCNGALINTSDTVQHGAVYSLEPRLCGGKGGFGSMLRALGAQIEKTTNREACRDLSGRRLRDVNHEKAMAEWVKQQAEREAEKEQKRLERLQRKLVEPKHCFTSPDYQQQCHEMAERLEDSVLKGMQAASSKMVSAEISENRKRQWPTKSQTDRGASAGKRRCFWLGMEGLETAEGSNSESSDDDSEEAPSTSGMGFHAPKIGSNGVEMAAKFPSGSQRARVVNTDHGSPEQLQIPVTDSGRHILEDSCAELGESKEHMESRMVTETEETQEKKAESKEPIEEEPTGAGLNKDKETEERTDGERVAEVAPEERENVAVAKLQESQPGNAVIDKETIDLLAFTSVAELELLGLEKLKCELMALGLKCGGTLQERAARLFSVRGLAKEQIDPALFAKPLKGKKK
# UniProt Q6N043: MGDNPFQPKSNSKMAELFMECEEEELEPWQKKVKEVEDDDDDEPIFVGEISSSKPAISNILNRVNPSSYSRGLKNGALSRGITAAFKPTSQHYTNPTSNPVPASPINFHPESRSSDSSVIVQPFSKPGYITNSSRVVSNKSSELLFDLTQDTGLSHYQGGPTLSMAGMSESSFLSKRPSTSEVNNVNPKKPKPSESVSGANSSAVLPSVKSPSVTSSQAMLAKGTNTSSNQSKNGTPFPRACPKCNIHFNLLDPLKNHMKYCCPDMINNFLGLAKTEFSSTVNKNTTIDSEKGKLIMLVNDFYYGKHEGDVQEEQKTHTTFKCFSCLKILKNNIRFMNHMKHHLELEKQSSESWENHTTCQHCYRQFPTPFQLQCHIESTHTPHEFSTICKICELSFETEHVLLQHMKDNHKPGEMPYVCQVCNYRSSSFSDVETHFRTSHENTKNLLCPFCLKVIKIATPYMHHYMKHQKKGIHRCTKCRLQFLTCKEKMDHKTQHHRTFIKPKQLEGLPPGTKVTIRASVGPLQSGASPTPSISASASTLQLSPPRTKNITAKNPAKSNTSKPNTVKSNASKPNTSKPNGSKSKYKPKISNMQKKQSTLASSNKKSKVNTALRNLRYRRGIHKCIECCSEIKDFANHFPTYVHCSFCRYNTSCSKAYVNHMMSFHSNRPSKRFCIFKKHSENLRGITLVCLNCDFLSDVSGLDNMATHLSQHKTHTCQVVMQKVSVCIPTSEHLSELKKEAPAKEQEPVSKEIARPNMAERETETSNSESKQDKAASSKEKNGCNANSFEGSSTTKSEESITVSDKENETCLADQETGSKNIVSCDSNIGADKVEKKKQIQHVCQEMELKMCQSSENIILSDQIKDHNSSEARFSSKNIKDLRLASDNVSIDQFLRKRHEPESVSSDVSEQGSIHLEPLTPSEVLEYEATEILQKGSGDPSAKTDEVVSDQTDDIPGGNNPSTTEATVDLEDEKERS
# UniProt Q659C4: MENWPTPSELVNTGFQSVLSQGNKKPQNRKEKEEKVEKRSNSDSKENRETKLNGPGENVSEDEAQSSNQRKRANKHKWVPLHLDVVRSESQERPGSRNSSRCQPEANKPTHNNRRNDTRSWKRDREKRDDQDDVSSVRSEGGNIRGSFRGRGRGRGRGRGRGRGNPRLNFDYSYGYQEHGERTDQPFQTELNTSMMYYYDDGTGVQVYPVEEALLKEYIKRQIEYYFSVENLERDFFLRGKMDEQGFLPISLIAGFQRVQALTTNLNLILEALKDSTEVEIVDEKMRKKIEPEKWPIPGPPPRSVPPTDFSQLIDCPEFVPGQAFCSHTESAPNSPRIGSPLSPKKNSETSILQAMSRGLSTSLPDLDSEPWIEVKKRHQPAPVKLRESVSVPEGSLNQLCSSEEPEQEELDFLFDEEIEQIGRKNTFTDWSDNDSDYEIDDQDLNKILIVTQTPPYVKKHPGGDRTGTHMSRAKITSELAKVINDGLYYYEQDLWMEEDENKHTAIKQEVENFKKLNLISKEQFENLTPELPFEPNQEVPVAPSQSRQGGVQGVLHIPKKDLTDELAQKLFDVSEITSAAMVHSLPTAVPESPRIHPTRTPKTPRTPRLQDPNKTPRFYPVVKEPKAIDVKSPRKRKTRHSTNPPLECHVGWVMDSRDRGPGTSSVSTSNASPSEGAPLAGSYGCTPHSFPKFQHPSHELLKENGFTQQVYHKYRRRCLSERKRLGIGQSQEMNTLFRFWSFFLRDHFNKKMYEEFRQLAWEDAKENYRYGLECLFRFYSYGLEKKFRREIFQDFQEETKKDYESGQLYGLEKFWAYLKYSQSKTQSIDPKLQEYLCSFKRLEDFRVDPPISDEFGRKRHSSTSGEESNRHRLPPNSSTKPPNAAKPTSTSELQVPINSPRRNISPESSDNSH
# UniProt Q6P1X6: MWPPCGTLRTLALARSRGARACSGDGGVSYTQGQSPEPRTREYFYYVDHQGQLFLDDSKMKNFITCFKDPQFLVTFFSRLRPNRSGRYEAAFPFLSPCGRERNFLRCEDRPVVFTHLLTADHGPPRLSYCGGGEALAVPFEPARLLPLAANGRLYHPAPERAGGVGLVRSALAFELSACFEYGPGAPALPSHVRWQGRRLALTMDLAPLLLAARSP
# Compound: Cc1nc(Nc2ncc(C(=O)Nc3c(C)cccc3Cl)s2)cc(N2CCN(CCO)CC2)n1 [dasatinib]
# Experiment: log2 fold change of tryptic peptide abundance, ligand vs vehicle (limited proteolysis) (log2 ratio); higher = more trypsin-susceptible (destabilized)
# Settings: ligand concentration: 5 uM; sample: K562 cleared lysate
row,Target,log2 fold change
1,"UniProt Q5XUX0 (peptide sequence: CREEYGVCENLR, peptide start residue: 111)",-0.455
2,"TTC27 (peptide sequence: AEEILRQELEK, peptide start residue: 485) (UniProt Q6P3X3)",0.27
3,"UniProt Q5VUG0 (peptide sequence: IAVVQPEK, peptide start residue: 464)",-0.192
4,"UniProt Q6NX49 (peptide sequence: SGPEEPPSLVLGK, peptide start residue: 112)",0.428
5,"GFI1B (peptide sequence: AHTYHQPR, peptide start residue: 12) (UniProt Q5VTD9)",0.134
6,"TXNDC11 (peptide sequence: ILVATMERK, peptide start residue: 923) (UniProt Q6PKC3)",-0.143
7,"UniProt Q6IQ49 (peptide sequence: ARVVNTDHGSPEQLQIPVTDSGR, peptide start residue: 269)",-0.182
8,"ZNF280D (peptide sequence: SPSVTSSQAMLAK, peptide start residue: 211) (UniProt Q6N043)",0.282
9,"LARP2 (peptide sequence: VDPPISDEFGR, peptide start residue: 848) (UniProt Q659C4)",0.233
10,"C8orf82 (peptide sequence: TREYFYYVDHQGQLFLDDSK, peptide start residue: 40) (UniProt Q6P1X6)",0.19

# Rewritten with tabs: entries from further up
row	Target	log2 fold change
7	UniProt Q6IQ49 (peptide sequence: ARVVNTDHGSPEQLQIPVTDSGR, peptide start residue: 269)	-0.182
8	ZNF280D (peptide sequence: SPSVTSSQAMLAK, peptide start residue: 211) (UniProt Q6N043)	0.282

# From the supplement of paper PMC12819154, “High-throughput peptide-centric local stability assay extends protein–ligand identification to membrane proteins, tissues and bacteria” (Nature Structural & Molecular Biology, 2025)
